Results deposited as PubChem BioAssay AID1259254 (NCATS, 2017)
Test: 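Finding genes that stop cells copying their DNA twice in one cycle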 (primary screen). Cell system: human HCT116 colorectal cancer cells. Reagents: single siRNA against human genes. Time to read-out: 3 days. Measured: 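Imaged Hoechst DNA stain sorts each cell into a cycle phase by DNA amount; per plate, G2 fraction set to 0% for non-targeting and 100% for GMNN siRNA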. Scale: G2 robust z-score and G2 cells, % of GMNN control: higher = more G2 cells, more excess DNA replication; raw share of cells in G2: higher = larger share of cells with G2 DNA content. Rule for the call: 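An siRNA counts as active if its G2 robust z-score lies at least 5 MADs above the screen median; here such calls match roughly 38% of GMNN control or more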.
This is one part, drawn at random, of about 59,000 reagents. Of all reagents, about 1,550 (2.6%) got an active call. 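G2 share is only a proxy for re-replication; each gene was hit by three separate siRNAs, and active genes were retested.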 Raw values vary from plate to plate and are shown uncorrected. Not stated in the record: the amount of reagent.

| gene knocked down | PubChem SID | G2 robust z-score | G2 cells, % of GMNN control | raw share of cells in G2 (%) | activity call |
| --- | --- | --- | --- | --- | --- |
| ACER2 (alkaline ceramidase 2) | SID160764429 | 0.399 | 5.78 | 5.97 | inactive |
| ACER2 (alkaline ceramidase 2) | SID160764430 | -0.314 | 0.757 | 3.59 | inactive |
| ACER2 (alkaline ceramidase 2) | SID160764431 | 5.12 | 39 | 19.9 | active |
| KBTBD4 (kelch repeat and BTB domain containing 4) | SID160744147 | 0.206 | 4.42 | 6.22 | inactive |
| KBTBD4 (kelch repeat and BTB domain containing 4) | SID160744148 | -0.442 | -0.14 | 4.08 | inactive |
| KBTBD4 (kelch repeat and BTB domain containing 4) | SID160744150 | -0.8 | -2.66 | 2.29 | inactive |
| PFDN6 (prefoldin subunit 6) | SID160728504 | 0.41 | 5.85 | 7.97 | inactive |
| PFDN6 (prefoldin subunit 6) | SID160728507 | 0.332 | 5.3 | 6.16 | inactive |
| PFDN6 (prefoldin subunit 6) | SID160732280 | 0.22 | 4.51 | 5.05 | inactive |
| ZNF607 (zinc finger protein 607) | SID160752696 | -0.0416 | 2.67 | 3.74 | inactive |
| ZNF607 (zinc finger protein 607) | SID160752697 | 0.834 | 8.84 | 9.9 | inactive |
| ZNF607 (zinc finger protein 607) | SID160752698 | -0.0805 | 2.4 | 4.39 | inactive |
| PLCH2 (phospholipase C eta 2) | SID160722713 | 1.3 | 12.1 | 9.79 | inactive |
| PLCH2 (phospholipase C eta 2) | SID160722714 | -0.705 | -1.99 | 3.94 | inactive |
| PLCH2 (phospholipase C eta 2) | SID160722715 | 0.336 | 5.33 | 5.02 | inactive |
| ANKRD12 (ankyrin repeat domain 12) | SID160735843 | -0.886 | -3.26 | 3.71 | inactive |
| ANKRD12 (ankyrin repeat domain 12) | SID160735844 | 0.0591 | 3.38 | 5.53 | inactive |
| ANKRD12 (ankyrin repeat domain 12) | SID160735845 | -0.465 | -0.305 | 3.06 | inactive |
| RPN2 (ribophorin II) | SID160716124 | 5.82 | 43.9 | 20.1 | active |
| RPN2 (ribophorin II) | SID160716126 | -0.957 | -3.77 | 2.89 | inactive |
| RPN2 (ribophorin II) | SID160716127 | -0.588 | -1.17 | 4.23 | inactive |
| FAM234A (family with sequence similarity 234 member A) | SID160751588 | -0.501 | -0.56 | 3.92 | inactive |
| FAM234A (family with sequence similarity 234 member A) | SID160751589 | 4.42 | 34.1 | 13.6 | inactive |
| FAM234A (family with sequence similarity 234 member A) | SID160751590 | -0.709 | -2.02 | 1.79 | inactive |
| RPS16 (ribosomal protein S16) | SID160716191 | 7.8 | 57.9 | 24.9 | active |
| RPS16 (ribosomal protein S16) | SID160716192 | 7.81 | 57.9 | 26.8 | active |
| RPS16 (ribosomal protein S16) | SID160716193 | 8.31 | 61.4 | 24.6 | active |
| TCP10L2 (t-complex 10 like 2 (pseudogene)) | SID160767237 | 0.164 | 4.12 | 5.31 | inactive |
| TCP10L2 (t-complex 10 like 2 (pseudogene)) | SID160767238 | -0.815 | -2.77 | 2.42 | inactive |
| TCP10L2 (t-complex 10 like 2 (pseudogene)) | SID160767239 | -1.4 | -6.88 | 1.94 | inactive |
| TMEM135 (transmembrane protein 135) | SID160748254 | 1.44 | 13.1 | 10.3 | inactive |
| TMEM135 (transmembrane protein 135) | SID160748255 | 1.03 | 10.2 | 9.19 | inactive |
| TMEM135 (transmembrane protein 135) | SID160748256 | 0.215 | 4.48 | 3.88 | inactive |
| NHSL3 (NHS like 3) | SID160746490 | -0.473 | -0.364 | 4.2 | inactive |
| NHSL3 (NHS like 3) | SID160746491 | -0.579 | -1.1 | 3.93 | inactive |
| NHSL3 (NHS like 3) | SID160746492 | 0.368 | 5.55 | 4.79 | inactive |
| LOC642452 (retired record) | SID160733770 | -0.045 | 2.65 | 4.02 | inactive |
| LOC642452 (retired record) | SID160768617 | 2.36 | 19.5 | 11.2 | inactive |
| LOC642452 (retired record) | SID160768618 | -0.747 | -2.29 | 2.55 | inactive |
| OR51F2 (olfactory receptor family 51 subfamily F member 2) | SID160755745 | 6.41 | 48.1 | 23.4 | active |
| OR51F2 (olfactory receptor family 51 subfamily F member 2) | SID160755746 | -0.597 | -1.23 | 2.96 | inactive |
| OR51F2 (olfactory receptor family 51 subfamily F member 2) | SID160755747 | 0.119 | 3.8 | 2.93 | inactive |
| HMCN1 (hemicentin 1) | SID160751458 | 2.29 | 19.1 | 13.4 | inactive |
| HMCN1 (hemicentin 1) | SID160751459 | -0.258 | 1.15 | 4.61 | inactive |
| HMCN1 (hemicentin 1) | SID160751460 | -1.09 | -4.7 | 3.04 | inactive |
| SP1 (Sp1 transcription factor) | SID160717221 | 3.13 | 25 | 12.2 | inactive |
| SP1 (Sp1 transcription factor) | SID160717222 | 0.357 | 5.48 | 7.53 | inactive |
| SP1 (Sp1 transcription factor) | SID160717224 | 3.54 | 27.9 | 14.1 | inactive |
| DGLUCY (D-glutamate cyclase) | SID160749966 | 0.332 | 5.3 | 6.65 | inactive |
| DGLUCY (D-glutamate cyclase) | SID160749967 | 1.54 | 13.8 | 10.3 | inactive |
| DGLUCY (D-glutamate cyclase) | SID160749968 | 3.49 | 27.5 | 9.91 | inactive |
| MARCHF8 (membrane associated ring-CH-type finger 8) | SID160761555 | -0.878 | -3.21 | 4.43 | inactive |
| MARCHF8 (membrane associated ring-CH-type finger 8) | SID160761556 | 2.59 | 21.2 | 12.5 | inactive |
| MARCHF8 (membrane associated ring-CH-type finger 8) | SID160761557 | 0.846 | 8.92 | 8.45 | inactive |
| TYW5 (tRNA-yW synthesizing protein 5) | SID160732456 | 0.189 | 4.29 | 4.14 | inactive |
| TYW5 (tRNA-yW synthesizing protein 5) | SID160756864 | 1.93 | 16.5 | 10.4 | inactive |
| TYW5 (tRNA-yW synthesizing protein 5) | SID160756865 | -0.671 | -1.75 | 2.55 | inactive |
| SLA2 (Src like adaptor 2) | SID160751838 | -1.11 | -4.81 | 2.51 | inactive |
| SLA2 (Src like adaptor 2) | SID160751840 | 8.19 | 60.6 | 21.4 | active |
| SLA2 (Src like adaptor 2) | SID160751841 | -0.384 | 0.268 | 2.49 | inactive |
| APBB1 (amyloid beta precursor protein binding family B member 1) | SID160718209 | 0.0333 | 3.2 | 6.8 | inactive |
| APBB1 (amyloid beta precursor protein binding family B member 1) | SID160718218 | 0.529 | 6.69 | 6.54 | inactive |
| APBB1 (amyloid beta precursor protein binding family B member 1) | SID160718228 | 0.831 | 8.81 | 6.98 | inactive |
| KRT126P (keratin 126, pseudogene) | SID160769026 | -0.169 | 1.78 | 4.32 | inactive |
| KRT126P (keratin 126, pseudogene) | SID160769027 | 0.118 | 3.8 | 4.64 | inactive |
| KRT126P (keratin 126, pseudogene) | SID160769028 | 0.151 | 4.03 | 4.32 | inactive |
| ENPP2 (ectonucleotide pyrophosphatase/phosphodiesterase 2) | SID160714069 | -0.468 | -0.325 | 4.69 | inactive |
| ENPP2 (ectonucleotide pyrophosphatase/phosphodiesterase 2) | SID160714070 | -1.26 | -5.91 | 2.52 | inactive |
| ENPP2 (ectonucleotide pyrophosphatase/phosphodiesterase 2) | SID160714071 | 0.916 | 9.41 | 6.33 | inactive |
| ANO3 (anoctamin 3) | SID160747370 | 0.0416 | 3.26 | 6 | inactive |
| ANO3 (anoctamin 3) | SID160747371 | 0.96 | 9.72 | 8.97 | inactive |
| ANO3 (anoctamin 3) | SID160747373 | -0.954 | -3.74 | 1.71 | inactive |
| DNAJA1 (DnaJ heat shock protein family (Hsp40) member A1) | SID160775369 | 0.407 | 5.83 | 5.78 | inactive |
| DNAJA1 (DnaJ heat shock protein family (Hsp40) member A1) | SID160775370 | -0.741 | -2.24 | 3.8 | inactive |
| DNAJA1 (DnaJ heat shock protein family (Hsp40) member A1) | SID160775371 | -0.333 | 0.621 | 3.33 | inactive |
| CENPVL3 (centromere protein V like 3) | SID160725121 | -0.95 | -3.72 | 1.63 | inactive |
| CENPVL3 (centromere protein V like 3) | SID160725123 | 0.37 | 5.57 | 6.43 | inactive |
| CENPVL3 (centromere protein V like 3) | SID160765001 | -0.935 | -3.61 | 2.75 | inactive |
| DONSON (DNA replication fork stabilization factor DONSON) | SID160739431 | 2.18 | 18.3 | 9.98 | inactive |
| DONSON (DNA replication fork stabilization factor DONSON) | SID160739432 | 8.09 | 59.9 | 33.3 | active |
| DONSON (DNA replication fork stabilization factor DONSON) | SID160739433 | 4.35 | 33.6 | 15.3 | inactive |
| LOC732272 (retired record) | SID160727764 | 0.782 | 8.47 | 6.45 | inactive |
| LOC732272 (retired record) | SID160774405 | 1.43 | 13 | 9.21 | inactive |
| LOC732272 (retired record) | SID160774406 | 3.52 | 27.7 | 12.8 | inactive |
| ASPSCR1 (ASPSCR1 tether for SLC2A4, UBX domain containing) | SID160748556 | 0.168 | 4.15 | 6.39 | inactive |
| ASPSCR1 (ASPSCR1 tether for SLC2A4, UBX domain containing) | SID160748557 | 1.47 | 13.3 | 10.6 | inactive |
| ASPSCR1 (ASPSCR1 tether for SLC2A4, UBX domain containing) | SID160748560 | -1.02 | -4.23 | 1.58 | inactive |

Records above marked active (8):
| gene knocked down | PubChem SID | G2 robust z-score | G2 cells, % of GMNN control | raw share of cells in G2 (%) | activity call |
| --- | --- | --- | --- | --- | --- |
| ACER2 (alkaline ceramidase 2) | SID160764431 | 5.12 | 39 | 19.9 | active |
| RPN2 (ribophorin II) | SID160716124 | 5.82 | 43.9 | 20.1 | active |
| RPS16 (ribosomal protein S16) | SID160716191 | 7.8 | 57.9 | 24.9 | active |
| RPS16 (ribosomal protein S16) | SID160716192 | 7.81 | 57.9 | 26.8 | active |
| RPS16 (ribosomal protein S16) | SID160716193 | 8.31 | 61.4 | 24.6 | active |
| OR51F2 (olfactory receptor family 51 subfamily F member 2) | SID160755745 | 6.41 | 48.1 | 23.4 | active |
| SLA2 (Src like adaptor 2) | SID160751840 | 8.19 | 60.6 | 21.4 | active |
| DONSON (DNA replication fork stabilization factor DONSON) | SID160739432 | 8.09 | 59.9 | 33.3 | active |
